Measurements taken from publication PMC4855823.

Protein sequences, listed by entry. Tags and fused reporters are not part of them.
UniProt Q96SW2: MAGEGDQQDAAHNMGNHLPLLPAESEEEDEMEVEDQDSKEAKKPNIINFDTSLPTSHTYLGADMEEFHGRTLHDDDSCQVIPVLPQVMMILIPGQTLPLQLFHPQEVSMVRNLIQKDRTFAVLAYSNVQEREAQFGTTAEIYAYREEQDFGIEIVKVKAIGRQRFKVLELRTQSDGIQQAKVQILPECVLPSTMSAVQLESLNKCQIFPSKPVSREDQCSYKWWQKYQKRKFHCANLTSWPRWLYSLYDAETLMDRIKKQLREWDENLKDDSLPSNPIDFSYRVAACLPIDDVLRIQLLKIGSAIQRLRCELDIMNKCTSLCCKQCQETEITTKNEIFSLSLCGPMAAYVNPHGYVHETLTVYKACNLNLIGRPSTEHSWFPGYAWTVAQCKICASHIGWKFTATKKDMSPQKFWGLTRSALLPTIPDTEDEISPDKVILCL
UniProt Q13619: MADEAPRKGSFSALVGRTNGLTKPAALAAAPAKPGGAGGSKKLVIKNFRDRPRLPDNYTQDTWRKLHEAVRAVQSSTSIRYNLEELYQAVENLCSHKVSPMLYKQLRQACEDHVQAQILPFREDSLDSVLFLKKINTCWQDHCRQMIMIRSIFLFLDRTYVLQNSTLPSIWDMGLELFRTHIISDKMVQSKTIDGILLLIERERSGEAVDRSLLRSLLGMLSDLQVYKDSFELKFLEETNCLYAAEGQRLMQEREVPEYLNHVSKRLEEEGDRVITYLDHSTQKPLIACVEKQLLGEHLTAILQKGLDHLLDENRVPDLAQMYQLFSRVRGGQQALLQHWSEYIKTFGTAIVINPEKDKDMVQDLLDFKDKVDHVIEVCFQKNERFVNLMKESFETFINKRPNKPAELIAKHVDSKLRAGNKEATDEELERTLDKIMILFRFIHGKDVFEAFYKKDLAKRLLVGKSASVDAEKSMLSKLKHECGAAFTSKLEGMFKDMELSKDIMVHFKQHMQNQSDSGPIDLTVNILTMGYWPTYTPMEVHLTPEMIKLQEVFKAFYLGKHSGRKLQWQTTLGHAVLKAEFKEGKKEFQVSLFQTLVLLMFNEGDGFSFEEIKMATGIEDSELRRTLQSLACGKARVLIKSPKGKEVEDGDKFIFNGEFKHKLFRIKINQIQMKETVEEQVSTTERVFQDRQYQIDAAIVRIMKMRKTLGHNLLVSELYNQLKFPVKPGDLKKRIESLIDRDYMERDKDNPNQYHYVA
UniProt Q13620: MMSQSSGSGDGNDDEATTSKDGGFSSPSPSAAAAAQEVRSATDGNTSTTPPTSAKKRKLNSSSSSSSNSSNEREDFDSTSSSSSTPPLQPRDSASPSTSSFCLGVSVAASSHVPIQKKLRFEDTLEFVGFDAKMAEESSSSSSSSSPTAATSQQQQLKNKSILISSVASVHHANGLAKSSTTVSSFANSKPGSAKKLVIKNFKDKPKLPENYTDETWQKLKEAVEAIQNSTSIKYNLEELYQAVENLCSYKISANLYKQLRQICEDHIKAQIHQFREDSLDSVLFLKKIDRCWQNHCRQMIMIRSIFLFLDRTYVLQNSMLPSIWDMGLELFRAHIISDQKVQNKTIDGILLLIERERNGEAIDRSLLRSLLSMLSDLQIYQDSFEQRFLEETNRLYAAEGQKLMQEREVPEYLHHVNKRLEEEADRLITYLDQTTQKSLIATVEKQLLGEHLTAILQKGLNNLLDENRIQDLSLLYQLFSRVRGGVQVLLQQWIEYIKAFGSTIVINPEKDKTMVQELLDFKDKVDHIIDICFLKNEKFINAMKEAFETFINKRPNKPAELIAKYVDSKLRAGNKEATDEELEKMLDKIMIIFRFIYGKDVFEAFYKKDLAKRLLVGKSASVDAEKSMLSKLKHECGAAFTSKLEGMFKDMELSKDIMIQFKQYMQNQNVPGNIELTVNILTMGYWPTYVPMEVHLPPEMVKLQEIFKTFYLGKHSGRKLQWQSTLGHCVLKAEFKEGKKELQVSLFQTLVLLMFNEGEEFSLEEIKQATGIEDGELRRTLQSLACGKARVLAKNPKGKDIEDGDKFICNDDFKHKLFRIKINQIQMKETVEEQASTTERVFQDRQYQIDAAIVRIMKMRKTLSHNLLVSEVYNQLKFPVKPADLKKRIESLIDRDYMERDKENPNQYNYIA

Target: His-tagged cereblon (CRBN) expressed in My5.CRBN.His cells (human) (UniProt Q96SW2)
Assay: affinity purification with mass spectrometry; His-tagged CRBN held on Ni-NTA agarose beads from My5.CRBN.His lysate (nitrogen cavitation, no detergent; 20 mM Tris/HCl pH 7.9, 500 mM NaCl, 10 % glycerol, 5 mM imidazole, overnight 4 °C; washes 10, 20, 40 mM imidazole; eluted with 100 mM EDTA); SDS-PAGE bands analysed by MS/MS; control My5.LV lysate

Row | binding | Substance
1 | binds | cullin-4A (CUL-4A) (from UniProt Q13619 1-759)
2 | binds | cullin-4B (CUL-4B) (from UniProt Q13620 1-913)

Results are given in words; binding and its absence hold for the method and conditions named. In cells and extracts the contact can be indirect. Here binding means that the protein was enriched with, or labelled near, the bait; the list need not be complete.
